Laboratory results: publication PMC8881453, “Cryo-EM structure of translesion DNA synthesis polymerase ζ with a base pair mismatch” (Nature Communications, 2022)
Results are given in words; binding and its absence hold for the method and conditions named. Some results given as binding are weak or reduced against the parent protein; the word gives no strength. Where a sequence is shown, tags or fusion partners need not be part of it.

Molecular target: T1, Rev7, accessory subunit of DNA polymerase ζ (Polζ) (Saccharomyces cerevisiae), P38927
T1 chain: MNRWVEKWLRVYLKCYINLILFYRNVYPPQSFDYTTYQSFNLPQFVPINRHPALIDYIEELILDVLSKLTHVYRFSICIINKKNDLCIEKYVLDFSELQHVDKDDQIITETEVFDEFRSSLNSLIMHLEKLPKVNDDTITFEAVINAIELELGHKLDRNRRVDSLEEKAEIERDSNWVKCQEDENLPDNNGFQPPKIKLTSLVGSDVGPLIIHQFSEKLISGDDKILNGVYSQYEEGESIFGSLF
Assay: cryo-EM structure; Polζ holoenzyme incubated in a CaCl2 supplemented buffer with palindromic DNA (1.5 molar excess) with an A:C mismatch at the primer terminus, 1 mM dCTP; nominal resolution 3.05 Å; both purified
Settings: remark: other sources report otherwise

B1: Rev7, accessory subunit of DNA polymerase ζ (Polζ) (natural protein, Saccharomyces cerevisiae, UniProt P38927 1-245, looked up)
chain: MNRWVEKWLRVYLKCYINLILFYRNVYPPQSFDYTTYQSFNLPQFVPINRHPALIDYIEELILDVLSKLTHVYRFSICIINKKNDLCIEKYVLDFSELQHVDKDDQIITETEVFDEFRSSLNSLIMHLEKLPKVNDDTITFEAVINAIELELGHKLDRNRRVDSLEEKAEIERDSNWVKCQEDENLPDNNGFQPPKIKLTSLVGSDVGPLIIHQFSEKLISGDDKILNGVYSQYEEGESIFGSLF
notes: Rev7, Saccharomyces cerevisiae, accessory subunit of Polζ, full-length (residues 1-245); Two copies (Rev7A and Rev7B) stand in the pentameric holoenzyme; also called Rev7B; source: expressed in yeast from plasmids pBJ1462 and pBJ1524, purified as the Polζ holoenzyme
  binding: binds
